In publication PMC4004979:
No constants are given. Whether binding was seen depends on the method and setting. Binding seen in cells or lysates may run through a third protein. Some entries that bind do so weakly or less than the wild type. Where a sequence is shown, tags or fusion partners need not be part of it.

Chains of the proteins cited; added tags and fusions are not shown.
UniProt Q9JM13: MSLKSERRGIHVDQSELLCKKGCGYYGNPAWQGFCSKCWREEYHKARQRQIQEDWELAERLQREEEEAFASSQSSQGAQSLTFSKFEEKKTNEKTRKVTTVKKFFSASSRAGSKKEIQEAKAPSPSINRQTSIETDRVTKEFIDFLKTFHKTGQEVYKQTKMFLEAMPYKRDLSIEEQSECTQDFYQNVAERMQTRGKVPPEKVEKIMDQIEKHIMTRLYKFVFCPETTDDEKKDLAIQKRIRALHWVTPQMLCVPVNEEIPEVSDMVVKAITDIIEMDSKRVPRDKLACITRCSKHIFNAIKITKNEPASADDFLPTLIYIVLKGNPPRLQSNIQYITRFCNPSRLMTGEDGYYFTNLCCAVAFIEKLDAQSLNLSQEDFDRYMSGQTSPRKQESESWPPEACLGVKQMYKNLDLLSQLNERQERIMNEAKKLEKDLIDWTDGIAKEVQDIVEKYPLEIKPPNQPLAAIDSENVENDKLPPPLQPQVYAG

What was measured:
GST–Rab20 (mouse) = molecular target: T1, GST–Rab20 (mouse) (UniProt P35295); assay: pull-down; GST-Rab20 immobilised on glutathione-agarose beads and preloaded with 2 mM GTPγS; incubated with RAW264.7 lysate (2 mM GTPγS) for 2 h at 4°C; Rabex-5 detected by western blotting; only the target purified
T1 sequence: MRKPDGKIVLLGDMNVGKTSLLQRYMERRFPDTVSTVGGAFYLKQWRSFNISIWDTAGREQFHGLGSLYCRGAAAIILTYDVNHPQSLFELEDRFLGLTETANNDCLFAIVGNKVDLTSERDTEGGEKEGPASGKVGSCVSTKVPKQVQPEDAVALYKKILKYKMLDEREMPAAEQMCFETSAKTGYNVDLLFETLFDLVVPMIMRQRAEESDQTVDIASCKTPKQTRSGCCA

EGFP–Rab20 (mouse) = molecular target: T2, EGFP–Rab20 (mouse) (UniProt P35295); assay: co-IP; GFP-Trap beads with lysate of RAW264.7 macrophages stably expressing EGFP-Rab20; lysis buffer (20 mM Tris-HCl pH 7.5, 150 mM NaCl, 0.5% NP-40) with 1 mM GTPγS; 2 h at 4°C; blotted for GFP and Rabex-5
T2 sequence: T1 sequence

- binding (GST–Rab20 (mouse)): binds
- binding (EGFP–Rab20 (mouse)): binds
Substance: Rabex-5 (from UniProt Q9JM13 1-491)
